This note sets out measurements from publication PMC3679059.

Chains of the proteins cited; added tags and fusions are not shown. Lines headed by an entry give the natural chain unless they say otherwise; changes in a name come on top.
UniProt Q7DZ57: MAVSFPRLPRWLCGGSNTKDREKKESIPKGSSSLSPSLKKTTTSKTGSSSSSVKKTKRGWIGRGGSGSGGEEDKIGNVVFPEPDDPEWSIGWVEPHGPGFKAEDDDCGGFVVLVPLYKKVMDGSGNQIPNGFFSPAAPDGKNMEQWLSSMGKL

These are yes or no findings as the source states them, for the method shown. Binding seen in cells or lysates may run through a third protein. For part of these data: Binding can be weak; no strength is given. Tags and fused reporters may be left off the sequences shown.

Assay [1] concerns the target T1, CLV1-GFP (full-length) (Arabidopsis) (UniProt Q9SYQ8).
T1 sequence: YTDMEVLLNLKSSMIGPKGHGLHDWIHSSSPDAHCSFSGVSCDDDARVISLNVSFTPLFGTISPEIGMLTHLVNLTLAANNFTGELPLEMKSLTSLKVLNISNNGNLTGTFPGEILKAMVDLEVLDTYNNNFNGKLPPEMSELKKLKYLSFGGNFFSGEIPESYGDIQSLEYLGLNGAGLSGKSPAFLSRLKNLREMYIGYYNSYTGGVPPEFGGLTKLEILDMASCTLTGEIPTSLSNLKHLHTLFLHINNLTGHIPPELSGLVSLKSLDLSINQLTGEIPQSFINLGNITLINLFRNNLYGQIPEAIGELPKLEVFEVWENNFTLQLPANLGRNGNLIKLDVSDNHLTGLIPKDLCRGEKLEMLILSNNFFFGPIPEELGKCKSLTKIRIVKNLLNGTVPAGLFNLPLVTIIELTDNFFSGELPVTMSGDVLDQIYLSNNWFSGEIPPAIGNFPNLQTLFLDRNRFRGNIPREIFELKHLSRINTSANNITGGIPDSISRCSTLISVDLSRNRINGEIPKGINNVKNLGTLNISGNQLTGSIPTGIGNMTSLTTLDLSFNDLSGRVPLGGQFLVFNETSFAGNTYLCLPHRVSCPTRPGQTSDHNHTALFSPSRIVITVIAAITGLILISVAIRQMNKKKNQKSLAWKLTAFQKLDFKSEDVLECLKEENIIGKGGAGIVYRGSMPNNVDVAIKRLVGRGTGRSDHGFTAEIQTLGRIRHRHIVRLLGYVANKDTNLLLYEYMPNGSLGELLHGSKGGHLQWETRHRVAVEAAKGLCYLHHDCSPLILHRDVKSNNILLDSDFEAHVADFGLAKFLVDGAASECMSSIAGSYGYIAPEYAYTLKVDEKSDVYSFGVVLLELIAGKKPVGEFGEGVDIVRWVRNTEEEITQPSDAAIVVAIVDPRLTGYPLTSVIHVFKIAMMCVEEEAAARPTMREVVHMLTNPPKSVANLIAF
Nature of the assay: co-IP; proteins co-expressed in the same N. benthamiana leaves; total membrane fraction solubilised with 1% triton X-100; IP with anti-GFP and protein A agarose at 4°C, blot with anti-FLAG.

Assay [2] has as its target T2, BAM1-GFP (full-length) (Arabidopsis) (UniProt O49545).
T2 sequence: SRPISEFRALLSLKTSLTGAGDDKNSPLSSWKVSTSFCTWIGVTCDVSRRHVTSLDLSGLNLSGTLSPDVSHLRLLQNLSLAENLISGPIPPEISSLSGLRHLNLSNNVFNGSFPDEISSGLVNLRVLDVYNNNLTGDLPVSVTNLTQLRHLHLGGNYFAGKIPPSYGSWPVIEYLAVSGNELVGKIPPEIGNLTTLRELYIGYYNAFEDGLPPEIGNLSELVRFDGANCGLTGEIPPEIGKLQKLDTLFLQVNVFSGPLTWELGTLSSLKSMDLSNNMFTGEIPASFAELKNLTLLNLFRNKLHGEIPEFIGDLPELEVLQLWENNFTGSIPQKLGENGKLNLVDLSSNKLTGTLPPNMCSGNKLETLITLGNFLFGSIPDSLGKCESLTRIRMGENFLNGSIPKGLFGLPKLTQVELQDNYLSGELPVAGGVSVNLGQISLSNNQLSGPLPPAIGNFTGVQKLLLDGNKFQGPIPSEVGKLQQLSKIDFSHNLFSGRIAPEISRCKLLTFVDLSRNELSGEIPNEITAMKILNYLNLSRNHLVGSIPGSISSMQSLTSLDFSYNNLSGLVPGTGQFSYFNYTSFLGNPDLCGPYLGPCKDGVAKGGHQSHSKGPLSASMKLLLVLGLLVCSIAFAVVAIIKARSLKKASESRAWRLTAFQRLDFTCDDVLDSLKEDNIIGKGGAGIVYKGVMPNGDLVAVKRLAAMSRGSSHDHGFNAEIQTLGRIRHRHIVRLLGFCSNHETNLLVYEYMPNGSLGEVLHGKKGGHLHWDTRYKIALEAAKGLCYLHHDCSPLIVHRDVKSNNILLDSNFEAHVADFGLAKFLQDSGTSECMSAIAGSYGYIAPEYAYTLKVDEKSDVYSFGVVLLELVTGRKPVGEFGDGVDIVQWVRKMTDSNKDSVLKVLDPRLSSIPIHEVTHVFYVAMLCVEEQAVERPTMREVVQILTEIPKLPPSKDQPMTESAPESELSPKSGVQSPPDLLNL
Nature of the assay: condition: only membrane extracts mixed post expression instead of co-expression; co-IP; proteins expressed in separate N. benthamiana leaves and membrane extracts mixed post expression (CCI1 post); IP with anti-GFP, blot with anti-FLAG.

For assay [3], the target named is T3, BAM2-GFP (full-length) (Arabidopsis) (UniProt Q9M2Z1).
T3 sequence: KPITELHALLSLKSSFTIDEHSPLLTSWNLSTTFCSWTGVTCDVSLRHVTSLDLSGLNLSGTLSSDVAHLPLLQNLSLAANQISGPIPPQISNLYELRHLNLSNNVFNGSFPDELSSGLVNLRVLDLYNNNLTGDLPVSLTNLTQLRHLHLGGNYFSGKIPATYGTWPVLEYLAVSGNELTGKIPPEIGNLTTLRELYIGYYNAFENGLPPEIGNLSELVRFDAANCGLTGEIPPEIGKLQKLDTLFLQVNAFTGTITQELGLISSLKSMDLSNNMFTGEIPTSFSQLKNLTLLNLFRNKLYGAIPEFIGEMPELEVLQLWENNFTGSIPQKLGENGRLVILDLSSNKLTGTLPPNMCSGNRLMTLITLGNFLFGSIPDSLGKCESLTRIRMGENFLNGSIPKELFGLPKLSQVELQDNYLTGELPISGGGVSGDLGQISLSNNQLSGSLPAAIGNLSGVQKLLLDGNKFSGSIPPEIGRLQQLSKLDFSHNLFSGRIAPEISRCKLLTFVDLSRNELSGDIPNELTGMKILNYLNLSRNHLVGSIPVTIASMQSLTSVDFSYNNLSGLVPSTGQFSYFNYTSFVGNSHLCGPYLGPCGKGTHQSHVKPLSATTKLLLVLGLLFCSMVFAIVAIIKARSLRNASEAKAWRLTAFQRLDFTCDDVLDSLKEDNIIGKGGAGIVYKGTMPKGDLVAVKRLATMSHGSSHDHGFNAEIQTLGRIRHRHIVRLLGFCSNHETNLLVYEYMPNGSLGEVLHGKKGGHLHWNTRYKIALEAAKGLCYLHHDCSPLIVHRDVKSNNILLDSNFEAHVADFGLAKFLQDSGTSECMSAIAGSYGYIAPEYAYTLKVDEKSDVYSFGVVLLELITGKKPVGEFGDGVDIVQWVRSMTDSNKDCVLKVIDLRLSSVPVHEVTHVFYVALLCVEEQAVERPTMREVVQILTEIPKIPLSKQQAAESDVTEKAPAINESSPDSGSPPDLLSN
Described as above.

Take CCI1-FLAG (from UniProt Q7DZ57): the values for the binding result in assay [1], in assay [2] and in assay [3] were “binds”, “no binding” and “no binding”, respectively.
